No constants are given. Whether binding was seen depends on the method and setting. For some of these results: In cells and extracts the contact can be indirect. Some entries that bind do so weakly or less than the wild type. One block for each molecule: values may come before it.
Assays:
PCGF1 (mouse) = biological target: T1, PCGF1 (mouse) (UniProt Q8R023); experiment: cross-linking; 30 ug of the affinity-purified five-component PCGF1-PRC1 holocomplex cross-linked with BS3 for 30 min at 37 C; trypsin digest, LC-MS/MS, XQuest, confidence score cut-off > 15; both purified
T1 sequence: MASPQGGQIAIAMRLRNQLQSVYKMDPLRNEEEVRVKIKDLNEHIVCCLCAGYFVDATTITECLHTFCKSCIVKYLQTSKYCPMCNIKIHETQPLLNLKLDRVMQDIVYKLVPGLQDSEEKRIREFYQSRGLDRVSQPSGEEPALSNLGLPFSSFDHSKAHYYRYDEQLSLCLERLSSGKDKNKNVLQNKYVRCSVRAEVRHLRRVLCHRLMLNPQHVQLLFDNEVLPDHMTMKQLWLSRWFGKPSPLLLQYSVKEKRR

Chains of the proteins cited; added tags and fusions are not shown.
UniProt Q9CQJ4: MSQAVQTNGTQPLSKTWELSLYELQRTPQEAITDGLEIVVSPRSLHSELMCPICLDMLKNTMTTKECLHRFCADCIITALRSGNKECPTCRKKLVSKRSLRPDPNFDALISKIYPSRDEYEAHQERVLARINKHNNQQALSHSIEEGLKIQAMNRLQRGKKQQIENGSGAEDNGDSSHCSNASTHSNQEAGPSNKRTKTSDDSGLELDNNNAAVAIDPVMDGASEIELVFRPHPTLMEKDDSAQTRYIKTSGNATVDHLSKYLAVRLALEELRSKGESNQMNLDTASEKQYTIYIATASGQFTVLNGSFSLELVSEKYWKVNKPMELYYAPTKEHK
UniProt Q8CGN4: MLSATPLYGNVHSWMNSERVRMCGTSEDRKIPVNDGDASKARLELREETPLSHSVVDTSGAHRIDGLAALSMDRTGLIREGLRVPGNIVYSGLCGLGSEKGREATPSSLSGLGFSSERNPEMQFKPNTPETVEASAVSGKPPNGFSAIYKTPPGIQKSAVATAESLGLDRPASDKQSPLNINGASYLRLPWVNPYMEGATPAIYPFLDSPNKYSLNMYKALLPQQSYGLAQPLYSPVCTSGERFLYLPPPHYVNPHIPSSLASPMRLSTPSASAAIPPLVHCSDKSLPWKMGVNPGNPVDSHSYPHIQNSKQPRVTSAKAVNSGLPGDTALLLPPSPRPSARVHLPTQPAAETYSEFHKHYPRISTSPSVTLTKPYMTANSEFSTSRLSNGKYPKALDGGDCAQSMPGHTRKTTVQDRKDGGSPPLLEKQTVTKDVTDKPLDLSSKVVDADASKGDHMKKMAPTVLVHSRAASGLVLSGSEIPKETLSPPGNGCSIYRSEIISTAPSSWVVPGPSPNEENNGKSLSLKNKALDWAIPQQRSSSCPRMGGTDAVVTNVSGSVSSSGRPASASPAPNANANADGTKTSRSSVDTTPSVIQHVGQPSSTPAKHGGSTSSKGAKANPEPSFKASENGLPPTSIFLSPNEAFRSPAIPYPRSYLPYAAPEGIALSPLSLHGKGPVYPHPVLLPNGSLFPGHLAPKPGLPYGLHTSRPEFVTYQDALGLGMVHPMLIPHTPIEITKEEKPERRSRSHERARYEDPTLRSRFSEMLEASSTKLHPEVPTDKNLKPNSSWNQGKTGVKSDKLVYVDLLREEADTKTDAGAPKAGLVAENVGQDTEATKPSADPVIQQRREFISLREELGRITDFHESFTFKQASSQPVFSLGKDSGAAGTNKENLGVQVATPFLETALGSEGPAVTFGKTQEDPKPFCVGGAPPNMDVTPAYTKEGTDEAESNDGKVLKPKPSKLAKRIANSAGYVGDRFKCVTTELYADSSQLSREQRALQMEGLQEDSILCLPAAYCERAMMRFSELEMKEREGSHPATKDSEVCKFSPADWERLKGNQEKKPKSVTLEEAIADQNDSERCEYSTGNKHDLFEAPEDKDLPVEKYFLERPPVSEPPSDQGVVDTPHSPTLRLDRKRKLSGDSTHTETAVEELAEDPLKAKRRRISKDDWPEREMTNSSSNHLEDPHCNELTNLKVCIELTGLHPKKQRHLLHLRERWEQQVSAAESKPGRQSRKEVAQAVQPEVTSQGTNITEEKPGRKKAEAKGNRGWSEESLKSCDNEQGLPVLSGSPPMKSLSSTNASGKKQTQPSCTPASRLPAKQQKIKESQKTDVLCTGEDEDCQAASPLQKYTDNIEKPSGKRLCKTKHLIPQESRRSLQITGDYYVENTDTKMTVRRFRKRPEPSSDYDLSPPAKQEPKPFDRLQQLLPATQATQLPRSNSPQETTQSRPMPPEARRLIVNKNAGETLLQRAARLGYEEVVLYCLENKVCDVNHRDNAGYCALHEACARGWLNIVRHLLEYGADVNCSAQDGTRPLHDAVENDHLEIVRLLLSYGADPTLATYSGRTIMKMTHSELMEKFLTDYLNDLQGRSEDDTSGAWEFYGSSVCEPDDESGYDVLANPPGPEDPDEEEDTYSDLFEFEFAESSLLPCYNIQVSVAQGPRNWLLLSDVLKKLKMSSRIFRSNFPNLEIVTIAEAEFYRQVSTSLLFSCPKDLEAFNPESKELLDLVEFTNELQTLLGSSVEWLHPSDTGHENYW

RYBP (mouse) = biological target: T2, RYBP (mouse) (UniProt Q8CCI5); experiment: as above
T2 sequence: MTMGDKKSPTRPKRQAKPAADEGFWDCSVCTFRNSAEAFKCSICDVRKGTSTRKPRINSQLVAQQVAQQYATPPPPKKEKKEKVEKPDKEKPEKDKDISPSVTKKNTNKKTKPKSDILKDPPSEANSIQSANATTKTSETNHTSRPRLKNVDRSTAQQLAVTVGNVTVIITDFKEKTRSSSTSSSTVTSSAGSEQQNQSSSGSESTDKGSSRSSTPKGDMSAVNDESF

RING1B (mouse) [1] = biological target: RING1B (mouse) (UniProt Q9CQJ4); experiment: cross-linking; affinity-purified RYBP-PCGF1-RING1B trimer (compared with the PCGF1-RING1B dimer) cross-linked with BS3 for 30 min at 37 C; trypsin digest, LC-MS/MS, XQuest; both purified
RING1B (mouse) [2] = biological target: RING1B (mouse) (UniProt Q9CQJ4); experiment: pull-down; sub-complexes: co-expression vectors in which individual proteins were omitted (or PCGF4 with RING1B); affinity-purified via FLAG-RING1B on FLAG affinity resin; Coomassie-stained gel
RING1B (mouse) [3] = biological target: RING1B (mouse) (UniProt Q9CQJ4); experiment: cross-linking; 30 ug of the affinity-purified five-component PCGF1-PRC1 holocomplex cross-linked with BS3 for 30 min at 37 C; trypsin digest, LC-MS/MS, XQuest, confidence score cut-off > 15; both purified
RING1B (mouse) [4] = biological target: RING1B (mouse) (UniProt Q9CQJ4); experiment: pull-down; five proteins (RING1B, PCGF1, RYBP, KDM2B, BCOR) co-expressed by baculovirus in SF21 cells; extract bound to FLAG affinity resin via FLAG-RING1B, washed with 150 mM NaCl buffer, eluted with FLAG peptide; Coomassie-stained gel

binding (PCGF1 (mouse)): binds | binding (RYBP (mouse)): binds
Molecule: BCOR (from UniProt Q8CGN4 1-1759)

binding (RING1B (mouse) [1]): binds | binding (RING1B (mouse) [2]): binds | binding (RING1B (mouse) [3]): binds | binding (RING1B (mouse) [4]): binds
B1: RYBP (protein, UniProt Q8CCI5 1-228)
chain: T2 sequence

binding (RING1B (mouse) [2]): binds
B2: PCGF4 (protein, UniProt P25916 1-324)
chain: MHRTTRIKITELNPHLMCVLCGGYFIDATTIIECLHSFCKTCIVRYLETSKYCPICDVQVHKTRPLLNIRSDKTLQDIVYKLVPGLFKNEMKRRRDFYAAHPSADAANGSNEDRGEVADEEKRIITDDEIISLSIEFFDQSRLDRKVNKEKPKEEVNDKRYLRCPAAMTVMHLRKFLRSKMDIPNTFQIDVMYEEEPLKDYYTLMDIAYIYTWRRNGPLPLKYRVRPTCKRMKMSHQRDGLTNAGELESDSGSDKANSPAGGVPSTSSCLPSPSTPVQSPHPQFPHISSTMNGTSNSPSANHQSSFASRPRKSSLNGSSATSSG
